Results deposited as PubChem BioAssay AID1159578 (Peter MacCallum Cancer Centre, 2015).
The deposit covers about 18,000 reagents; this is an unselected part. About 1,030 of them (5.7%) were called active. 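Inactive calls also include pools with fewer than 3300 nuclei, whose migration was not assessed.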 Raw values vary from plate to plate and are shown uncorrected. A number with no mark means an inactive call. Further read-outs or replicates are left out here.

- Aim: 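Knock-downs that alter how fast lymphatic endothelial cells migrate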 (primary screen)
- System: human lymphatic endothelial cells
- Reagent: siRNA pool against human genes, 40 nM
- Duration: 48 h after transfection
- Measured: 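High-content imaging of dye-stained cells in a scratch assay measures filled wound area and nuclei per well; duplicate means given as ratio to mock and robust z-score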
- Direction: migration robust z-score: higher = faster migration into the scratch; nuclei per well: higher = more cells in the well
- Call rule: 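Pools averaging fewer than 3300 nuclei are never called; remaining pools count as changed when migration robust z lies outside -2 to 2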
- Calls: active = migration changed; inactive = no migration change, or too few cells

| gene knocked down | migration robust z-score | nuclei per well, duplicate mean |
| --- | --- | --- |
| MCAM (GeneID 4162) | -0.34 | 6440 |
| ARFGEF3 (GeneID 57221) | 0.14 | 5350 |
| TCN1 (GeneID 6947) | -0.55 | 4055 |
| TBC1D2 (GeneID 55357) | -0.07 | 5466 |
| OR2W5 (GeneID 441932) | -0.48 | 5022 |
| PNMA5 (GeneID 114824) | 0.48 | 5358 |
| CSTA (GeneID 1475) | -0.24 | 6380 |
| CD99 (GeneID 4267) | 1.62 | 5528 |
| RFC4 (GeneID 5984) | -0.38 | 5318 |
| LSM12 (GeneID 124801) | 1.7 | 6290 |
| UNG (GeneID 7374) | 0.2 | 4982 |
| ISY1 (GeneID 57461) | -1.58 | 6178 |
| EMX2 (GeneID 2018) | 0.52 | 1350 |
| ZIM3 (GeneID 114026) | 0 | 6208 |
| RNF123 (GeneID 63891) | 0.44 | 6854 |
| SYT4 (GeneID 6860) | 1.32 | 5170 |
| FBXO24 (GeneID 26261) | -1.46 | 5417 |
| NCAPG (GeneID 64151) | 0.26 | 5806 |
| HASPIN (GeneID 83903) | -1.77 | 4137 |
| SLIT2 (GeneID 9353) | -0.34 | 5152 |
| AVIL (GeneID 10677) | -1.01 | 6202 |
| SYT13 (GeneID 57586) | 0.64 | 4798 |
| FBH1 (GeneID 84893) | 1.06 | 5417 |
| IPCEF1 (GeneID 26034) | -0.1 | 6354 |
| TAS2R10 (GeneID 50839) | 1.06 | 5266 |
| GOLPH3L (GeneID 55204) | 1.19 | 5523 |
| GPRC5B (GeneID 51704) | 0 | 6310 |
| ATP10B (GeneID 23120) | 0 | 5648 |
| SEPTIN9 (GeneID 10801) | 0.34 | 5174 |
| PAPOLG (GeneID 64895) | -1.01 | 3728 |
| ERGIC1 (GeneID 57222) | 0.69 | 4964 |
| PI4K2A (GeneID 55361) | -2.54 (active) | 4556 |
| OR2B2 (GeneID 81697) | 1.66 | 7054 |
| TSPAN5 (GeneID 10098) | -1.12 | 5052 |
| ECSIT (GeneID 51295) | -1.15 | 6382 |
| MTERF1 (GeneID 7978) | 0.26 | 7038 |
| CABCOCO1 (GeneID 219621) | -0.15 | 5648 |
| AKR1C8 (GeneID 340811) | -0.45 | 5752 |
| PEX10 (GeneID 5192) | 0.68 | 6390 |
| ABCB9 (GeneID 23457) | 0.76 | 5210 |
| TOPBP1 (GeneID 11073) | -1.66 | 4084 |
| CCDC191 (GeneID 57577) | -1.31 | 4200 |
| WNT10B (GeneID 7480) | -0.03 | 6568 |
| TSR2 (GeneID 90121) | 0.32 | 6056 |
| FCRL3 (GeneID 115352) | -0.56 | 6122 |
| OTUD7A (GeneID 161725) | -0.44 | 5764 |
| SLC39A1 (GeneID 27173) | -0.94 | 5977 |
| CALHM5 (GeneID 254228) | 1.59 | 5346 |
| SFXN1 (GeneID 94081) | -0.42 | 5647 |
| SP3 (GeneID 6670) | 0.36 | 5518 |
| THAP3 (GeneID 90326) | -0.99 | 7938 |
| HERC5 (GeneID 51191) | -0.42 | 5416 |
| AAMDC (GeneID 28971) | -0.08 | 5812 |
| NDST2 (GeneID 8509) | 0.65 | 6458 |
| ZNG1A (GeneID 55871) | -0.4 | 4275 |
| CAPN7 (GeneID 23473) | 0.78 | 6378 |
| SLC9A3 (GeneID 6550) | 1.03 | 4776 |

Already shown: 4 of the entries above.
| gene knocked down | migration robust z-score | nuclei per well, duplicate mean |
| --- | --- | --- |
| FCRL3 (GeneID 115352) | -0.56 | 6122 |
| OTUD7A (GeneID 161725) | -0.44 | 5764 |
| SLC39A1 (GeneID 27173) | -0.94 | 5977 |
| CALHM5 (GeneID 254228) | 1.59 | 5346 |
